# No constants are given. Whether binding was seen depends on the method and setting. In cells and extracts the contact can be indirect. Here binding means that the protein was enriched with, or labelled near, the bait; the list need not be complete. Tags and fused reporters may be left off the sequences shown.
# T1: His6-Gis1 (yeast (S. cerevisiae)) (UniProt Q03833)
# T1 sequence: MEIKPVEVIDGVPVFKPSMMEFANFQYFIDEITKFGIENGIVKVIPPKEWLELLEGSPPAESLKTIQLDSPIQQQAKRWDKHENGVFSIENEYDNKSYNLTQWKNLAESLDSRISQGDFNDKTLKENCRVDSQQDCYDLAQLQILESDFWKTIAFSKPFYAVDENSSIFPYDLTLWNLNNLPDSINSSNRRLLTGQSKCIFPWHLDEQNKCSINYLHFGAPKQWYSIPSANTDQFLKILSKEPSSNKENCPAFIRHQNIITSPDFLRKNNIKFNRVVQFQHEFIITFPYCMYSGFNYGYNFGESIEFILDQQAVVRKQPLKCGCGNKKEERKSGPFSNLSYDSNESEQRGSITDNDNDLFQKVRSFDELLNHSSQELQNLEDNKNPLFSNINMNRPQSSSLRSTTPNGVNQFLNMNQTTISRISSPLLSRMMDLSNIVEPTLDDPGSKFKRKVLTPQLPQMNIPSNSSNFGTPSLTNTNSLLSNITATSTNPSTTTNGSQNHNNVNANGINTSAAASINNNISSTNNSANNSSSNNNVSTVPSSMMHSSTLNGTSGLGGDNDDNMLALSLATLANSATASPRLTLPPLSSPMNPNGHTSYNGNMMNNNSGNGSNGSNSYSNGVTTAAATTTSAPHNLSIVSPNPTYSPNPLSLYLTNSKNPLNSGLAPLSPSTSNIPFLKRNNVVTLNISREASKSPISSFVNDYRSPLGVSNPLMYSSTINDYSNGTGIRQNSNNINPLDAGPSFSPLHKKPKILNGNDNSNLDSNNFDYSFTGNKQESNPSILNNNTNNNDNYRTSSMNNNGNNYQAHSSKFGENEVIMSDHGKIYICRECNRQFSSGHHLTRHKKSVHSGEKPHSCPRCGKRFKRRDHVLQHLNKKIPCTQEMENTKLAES
# Target: T1, His6-Gis1 (yeast (S. cerevisiae))
# Experiment: affinity purification with mass spectrometry; His6-Gis1 pre-bound to a Ni Sepharose 6 Fast Flow column; crude yeast extract (Δgis1 cells grown in air or under hypoxia, Δgis1Δhem1 cells at intermediate or high ALA) loaded, 4 °C, 2 h; eluted complexes separated by SDS-PAGE, bands excised, MS; only the target purified
row,Binder,binding
1,"PGK1 (protein, UniProt P00560 1-416) MSLSSKLSVQDLDLKDKRVFIRVDFNVPLDGKKITSNQRIVAALPTIKYVLEHHPRYVVLASHLGRPNGERNEKYSLAPVAKELQSLLGKDVTFLNDCVGPEVEAAVKASAPGSVILLENLRYHIEEEGSRKVDGQKVKASKEDVQKFRHELSSLADVYINDAFGTAHRAHSSMVGFDLPQRAAGFLLEKELKYFGKALENPTRPFLAILGGAKVADKIQLIDNLLDKVDSIIIGGGMAFTFKKVLENTEIGDSIFDKAGAEIVPKLMEKAKAKGVEVVLPVDFIIADAFSADANTKTVTDKEGIPAGWQGLDNGPESRKLFAATVAKAKTIVWNGPPGVFEFEKFAAGTKALLDEVVKSSAAGNTVIIGGGDTATVAKKYGVTDKISHVSTGGGASLELLEGKELPGVAFLSEKK",binds
2,"PGA2 (protein, UniProt P53903 1-129) MSEVAETWVDTWMAKLVNYDYKHFIRLVIIVGGYLLLRNIASRELAKKQLAAQVEKDKRDKEEKRSKDLIDKPDDAATAETTSFGWGKKTRRRVKRQQELFENALEEAKRRNQGLDPDSDADIEELLEE",binds
3,"POL4 (protein, UniProt P25615 1-582) MSLKGKFFAFLPNPNTSSNKFFKSILEKKGATIVSSIQNCLQSSRKEVVILIEDSFVDSDMHLTQKDIFQREAGLNDVDEFLGKIEQSGIQCVKTSCITKWVQNDKFAFQKDDLIKFQPSIIVISDNADDGQSSTDKESEISTDVESERNDDSNNKDMIQASKPLKRLLQGDKGRASLVTDKTKYKNNELIIGALKRLTKKYEIEGEKFRARSYRLAKQSMENCDFNVRSGEEAHTKLRNIGPSIAKKIQVILDTGVLPGLNDSVGLEDKLKYFKNCYGIGSEIAKRWNLLNFESFCVAAKKDPEEFVSDWTILFGWSYYDDWLCKMSRNECFTHLKKVQKALRGIDPECQVELQGSYNRGYSKCGDIDLLFFKPFCNDTTELAKIMETLCIKLYKDGYIHCFLQLTPNLEKLFLKRIVERFRTAKIVGYGERKRWYSSEIIKKFFMGVKLSPRELEELKEMKNDEGTLLIEEEEEEETKLKPIDQYMSLNAKDGNYCRRLDFFCCKWDELGAGRIHYTGSKEYNRWIRILAAQKGFKLTQHGLFRNNILLESFNERRIFELLNLKYAEPEHRNIEWEKKTA",binds
4,"PBP4 (protein, UniProt Q07362 1-185) MTTTSTTSVDGRTSSTLKATLSASGPNSNGPTPAVLPQKPKLTGWAQAAAKALPRQQQQQQQARKDDSVAVQPANTKTKTIASTAPPANIKGSSTANGSSTNKKFKRANKQPYNREEVRSYMHKLFQSYTAGEKSHSMKTYKQVLSETASGRVSTATDWGTVSSSKNKNKKYGCLSDIAKVLRNQ",binds
5,"OSH3 (protein, UniProt P38713 1-996) METIDIQNRSFVVRWVKCGRGDVINYQIKPLKKSIEVGIYKKLKSSVDDHASAVHIAPDTKTLLDYTTKSLLHKGSSSNIEEHHRRSSQHSHSSSNGSDNKRKERSYSSLSISGIQQQSQEIPLREKLSASGFTLVKRVGNVSGNTMVQGDLEVKDTDYYYAFILDNSSSKNAKKKILFNASVINGDNQSMISTRSTPPARPTALSRTSTQQDMLFRVGQGRYLQGYLLKKRRKRLQGFKKRFFTLDFRYGTLSYYLNDHNQTCRGEIVISLSSVSANKKDKIIIIDSGMEVWVLKATTKENWQSWVDALQTCFDDQFEDKDTSTLEENPDILDDDKEVINKSSPQDHDHLTPTATTKSALSHRQHTQKDMDDIYVPLPSESYATFSMNLRLIQQRLEQCKKDSLSYKPTTLHQRSEGLNGTHSSSSVFTNNRVSSFNHSSSGMTSSDSLASEEVPSNKTYIEHALYNQLADLEVFVSRFVTQGEVLFKDHQILCKKAKDTRVSLTSYLSENDEFFDAEEEISRGVIILPDTEDDINNIVEETPLLGKSDQNEFTKEVQLSGSEQIASSSVESYTTNDENHSRKHLKNRHKNRRRGHPHHQKTKSAQSSTETFTSKDLFALSYPKSVTRRNDIPEAAASPPSLLSFLRKNVGKDLSSIAMPVTSNEPISILQLISETFEYAPLLTKATQRPDPITFVSAFAISFLSIYRDKTRTLRKPFNPLLAETFELIREDMGFRLISEKVSHRPPVFAFFAEHLDWECSYTVTPSQKFWGKSIELNNEGILRLKFKTTGELFEWTQPTTILKNLIAGERYMEPVNEFEVHSSKGDKSHILFDKAGMFSGRSEGFKVSIIPPPSSNRKKETLAGKWTQSLANETTHETIWEVGDLVSNPKKKYGFTKFTANLNEITEIEKGNLPPTDSRLRPDIRAYEEGNVDKAEEWKLKLEQLQRERRNKGQDVEPKYFEKVSKNEWKYITGPKSYWERRKKHDWSDISQLW",binds
6,"PHO8 (protein, UniProt P11491 1-566) MMTHTLPSEQTRLVPGSDSSSRPKKRRISKRSKIIVSTVVCIGLLLVLVQLAFPSSFALRSASHKKKNVIFFVTDGMGPASLSMARSFNQHVNDLPIDDILTLDEHFIGSSRTRSSDSLVTDSAAGATAFACALKSYNGAIGVDPHHRPCGTVLEAAKLAGYLTGLVVTTRITDATPASFSSHVDYRWQEDLIATHQLGEYPLGRVVDLLMGGGRSHFYPQGEKASPYGHHGARKDGRDLIDEAQSNGWQYVGDRKNFDSLLKSHGENVTLPFLGLFADNDIPFEIDRDEKEYPSLKEQVKVALGALEKASNEDKDSNGFFLMVEGSRIDHAGHQNDPASQVREVLAFDEAFQYVLEFAENSDTETVLVSTSDHETGGLVTSRQVTASYPQYVWYPQVLANATHSGEFLKRKLVDFVHEHKGASSKIENFIKHEILEKDLGIYDYTDSDLETLIHLDDNANAIQDKLNDMVSFRAQIGWTTHGHSAVDVNIYAYANKKATWSYVLNNLQGNHENTEVGQFLENFLELNLNEVTDLIRDTKHTSDFDATEIASEVQHYDEYYHELTN",binds

# Results, then the binder that gave them:
row,binding,Binder
1,binds,"PSP2 (protein, UniProt P50109 1-593) MGTNNTSNNNGTTKKMSLEEFLGNDTLGESVWDEEDINLDAISNTTNIDILKQTKAGEHQRDGHQQHPHGGHGPMNRSRFSNAGPFGGGSMGDFANHHHPLQHQQGPPYIVKFSDLPPRFSNFDIEDLFQAKFTKFIKFKLFWEINKNPSISTLKSGSIFDQNFKRDSKVAFVELYTSRDMDKILNYWTTPLKEIYHITTAPAEFEDFKDYSTKVKLLTDPKDDAGKPFITKTQRSKSNPFGSAKPVDTQSKILDIEEKMENLHVEDTTTLRASLIPSSDSMATTATGSKITILKKQTPTEEESHSATPTPKPLSYSEVVERSVVNETSKKGTPLSKLDSPALELQSKPDKSDEFKGGDEQGFEKGGDDKAQLDVSNDKDKGSETDVDKQFTFKNVEREHSMSRTKYNGNHNNNNGNFRGSNRYRGGPNGSSYKGGHNNRGNRGGYRGGSSYNNNNNNTNDNNNNNNNSSSNNNNGSRYHDRQNNEEGLTSDSSLDASGNKKNDFTNSTSNTQQYSIFKPASGFLGQGNNDSIRNNGRGNYNSSGMNGGSRGRGFGRGRGFGRGAYNNRGSRGGRGSSGNYSNYNNRTTDMPL"
2,binds,"RPS18A (protein, UniProt P0CX55 1-146) MSLVVQEQGSFQHILRLLNTNVDGNIKIVYALTTIKGVGRRYSNLVCKKADVDLHKRAGELTQEELERIVQIMQNPTHYKIPAWFLNRQNDITDGKDYHTLANNVESKLRDDLERLKKIRAHRGIRHFWGLRVRGQHTKTTGRRRA"
3,binds,"PTC4 (protein, UniProt P38089 1-393) MGQLLSHPLTEKTIEYNEYKNNQASTGIVPRFYNCVGSMQGYRLTQEDAHLIRNENSVVYVRFFNPFIDKYETLSLNVFAVFDGHGGDDCSKFLSGGRHHRDGNGSSNGNGEPNAGLIKWIAYSFENHHYTSTTNNDSSKFKRSFNTLEGLVSQIFKDAFILQDEELYRHFANSSCGSTAVVACIINEESLYVANCGDSRCILSSKSNGIKTMSFDHKPQHIGELIRINDNGGTVSLGRVGGVLALSRAFSDFQFKRGVTYPHRRTKLTNITQNLTYGTPPQEAQVTVEPDVLMHKIDYSKDEFLVLACDGIWDIYNNKQLIHFIKYHLVSGTKLDTIITKLLDHGIAQANSNTGVGFDNMTAIIVVLNRKGETLQDWFNKMKTRLERERGLV"

# — PMC7140707
